Assay results reported in patent publication US20240366779A1 (priority 2021, published 2024).

Assay: general procedure: Fmoc solid-phase peptide synthesis; 2-chloro-trityl chloride or rink acid resin; cellulose paper discs for library; L-phenylalanine-2-chlorotrityl ester pol; HATU/DIPEA
Settings: conjugation step

mp-Ala-Ser-Glu-PAB-Auristatin E
conjugation yield: 42.5% yield
